Source: publication PMC8671394, “Paracrine FGFs target skeletal muscle to exert potent anti-hyperglycemic effects” (Nature Communications, 2021)
No constants are given. Whether binding was seen depends on the method and setting. In cells and extracts the contact can be indirect. Some binding calls cover weakened binding; strength is not graded here.

By UniProt entry, the sequences of proteins in these tests, tags left out. Residues count along the entry.
UniProt P11362, residues 22-822: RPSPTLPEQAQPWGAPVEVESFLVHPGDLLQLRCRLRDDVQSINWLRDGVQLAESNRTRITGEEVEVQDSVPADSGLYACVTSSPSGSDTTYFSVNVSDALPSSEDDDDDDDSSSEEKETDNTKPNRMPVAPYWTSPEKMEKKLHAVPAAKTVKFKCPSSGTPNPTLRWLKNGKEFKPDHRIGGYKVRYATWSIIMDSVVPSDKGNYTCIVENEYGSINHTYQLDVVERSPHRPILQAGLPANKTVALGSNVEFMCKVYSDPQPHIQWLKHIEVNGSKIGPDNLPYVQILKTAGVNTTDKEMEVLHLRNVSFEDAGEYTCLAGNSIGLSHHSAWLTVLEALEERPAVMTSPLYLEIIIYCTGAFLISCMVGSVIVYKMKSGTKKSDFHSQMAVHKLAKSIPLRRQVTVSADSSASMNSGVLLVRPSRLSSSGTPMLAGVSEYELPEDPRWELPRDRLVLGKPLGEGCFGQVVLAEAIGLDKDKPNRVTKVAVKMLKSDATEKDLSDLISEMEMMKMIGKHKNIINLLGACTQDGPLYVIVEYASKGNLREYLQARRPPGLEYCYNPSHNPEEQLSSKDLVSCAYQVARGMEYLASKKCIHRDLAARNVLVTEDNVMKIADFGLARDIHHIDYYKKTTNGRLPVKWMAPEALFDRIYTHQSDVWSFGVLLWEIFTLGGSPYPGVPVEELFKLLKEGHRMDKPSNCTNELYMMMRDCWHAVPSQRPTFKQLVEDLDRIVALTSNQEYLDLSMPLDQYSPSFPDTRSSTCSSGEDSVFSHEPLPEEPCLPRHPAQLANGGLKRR

Biological target: human FGFR1c ectopically expressed on the surface of L6 myoblasts (human) (UniProt P11362)
Assay: proximity ligation; L6 rat skeletal myoblasts ectopically expressing human FGFR1c, stimulated with mFGF4 or rFGF4; FGFR1c dimerization on the cell surface

- binding: binds
Substance: human FGFR1c ectopically expressed on the surface of L6 myoblasts (from UniProt P11362 22-822) (receptor)
